The values that follow come from article PMC8874600.

Experiment [1] concerns the target T1, RBE fused to the N-terminus of YFP (RBE in pBS:35S:nYFP) (Arabidopsis thaliana) (UniProt Q9LHS9).
T1 sequence: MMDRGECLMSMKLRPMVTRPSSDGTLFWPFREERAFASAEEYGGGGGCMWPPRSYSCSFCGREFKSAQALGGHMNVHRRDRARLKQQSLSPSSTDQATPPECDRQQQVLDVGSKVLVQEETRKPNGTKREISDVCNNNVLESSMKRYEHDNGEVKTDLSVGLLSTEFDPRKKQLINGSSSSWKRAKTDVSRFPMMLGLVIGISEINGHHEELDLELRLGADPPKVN
Description: split reporter; BiFC with MAC5A-cYFP and RBE-nYFP in onion epidermal cells after bombardment; YFP fluorescence.

The target of experiment [2] is T2, RABBIT EARS (RBE), bait BD-RBE (Arabidopsis thaliana) (UniProt Q9LHS9).
T2 sequence: T1 sequence
Description: two-hybrid; bait BD-RBE (pGBKT7) and prey AD-MAC5A (pGADT7) cotransformed into yeast strain AH109; growth on SD/-Ade/-His/-Leu/-Trp (QDO) medium, 30 °C, three to five days; empty vectors as negative controls.

Results are given in words; binding and its absence hold for the method and conditions named. Binding calls can cover weak binding; strength is not graded here. Sequences can lack the tags named with a protein. For some assays here: Binding seen in cells or lysates may run through a third protein.

Regarding “MAC5A fused to the C-terminus of YFP (MAC5A in pBS:35S:cYFP) (Arabidopsis thaliana)”, the binding entry in experiment [1] is “binds”.

For the substance “MOS4-ASSOCIATED COMPLEX 5A (MAC5A), prey AD-MAC5A (Arabidopsis thaliana)”, the binding entry in experiment [2] is given as “binds”.
